Measured data: PubChem BioAssay AID1224826 (NIAID, 2016)
The whole screen tested about 17,000 reagents; shown is an unselected part. In the full data, about 1,110 (6.6%) got an active call. 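Active means lowered or raised reporter signal; replicate intensities are raw and not normalised per plate.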 Unmarked entries are inactive. A reagent listed more than once was tested more than once; the source does not tell the runs apart. No sequences are given here.

Aim: 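Knock-downs that raise or lower Tnf reporter signal after endotoxin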 (primary screen)
Cells: RAW264.7 G9 macrophages from mouse bearing reporters for p65 (GFP) and the Tnf promoter (mCherry)
Reagents: siRNA pool against mouse genes, 100 nM
Duration: 16 h of LPS stimulation, after 2 days of siRNA transfection
Challenge: bacterial lipopolysaccharide (Salmonella minnesota R595), 10 ng/ml
Read-out: 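Nuclear mCherry signal of the Tnf promoter reporter measured by imaging after background removal, scaled to each plate median and turned into robust z-scores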
Reading the numbers: Tnf reporter robust z-score: higher = stronger Tnf promoter reporter signal after LPS; Tnf reporter intensity: higher = stronger Tnf promoter reporter signal
Call rule: 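Called active when robust z-score is at most -1.3, matching the median of the Tlr4 knock-down control, or over 3; control wells and wells with under 50 cells never active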
Calls: active = Tnf reporter clearly lowered or raised; inactive = no clear change in Tnf reporter

gene,Tnf reporter robust z-score,fewer than 50 cells in well,"Tnf reporter intensity, replicate 1","Tnf reporter intensity, replicate 2"
C530047H08Rik,1.42,enough cells in well,151,264
Fgl1,2.14,enough cells in well,405,249
Abca5,0.72,enough cells in well,284,206
Nkx1-2,1.14,enough cells in well,231,232
Nrg3,1.3,enough cells in well,282,232
Fv1,-0.64,enough cells in well,201,103
Mtres1,,fewer than 50 cells per well; well left out of calls,193,62.3
Pdhb,0.59,enough cells in well,335,182
Neo1,-0.7,enough cells in well,228,135
Trim34a,0.01,enough cells in well,114,96.5
Abcb9,0.62,enough cells in well,244,232
D630003M21Rik,-1.9 (active),enough cells in well,109,49.6
Aff3,-0.16,enough cells in well,246,128
Lrrk2,-1.26,enough cells in well,117,84.4
Lrrk2,,fewer than 50 cells per well; well left out of calls,125,23.2
Sgsh,0.63,enough cells in well,350,250
Or10ag60,0.33,enough cells in well,207,168
Selenop,-0.3,enough cells in well,78.5,104
Ifnlr1,-0.45,enough cells in well,183,142
Gpr50,-0.39,enough cells in well,177,274
Ankle2,2.36,enough cells in well,428,150
Rhox4e,2.33,enough cells in well,355,248
Gucy2c,1.24,enough cells in well,278,126
Synj2,-0.61,enough cells in well,203,188
Phf5a,,fewer than 50 cells per well; well left out of calls,48.1,47.7
H2ac8,2.05,enough cells in well,305,236
Susd4,0.04,enough cells in well,177,124
Ube2g2,1.39,enough cells in well,325,352
Or13a17,-0.28,enough cells in well,88.6,105
Mrps25,-0.56,enough cells in well,139,111
Gdf11,-0.23,enough cells in well,216,236
Tlr3,-0.68,enough cells in well,138,102
Rnf121,1.63,enough cells in well,200,196
Kif21b,0.12,enough cells in well,247,157
Nt5c3,0.03,enough cells in well,262,170
Gpr68,-0.32,enough cells in well,147,341
Lrrc39,-0.57,enough cells in well,124,174
Lpin3,-0.39,enough cells in well,166,95
Klri2,0.98,enough cells in well,195,240
Itgb3,-0.35,enough cells in well,249,105
Fmod,0.09,enough cells in well,337,176
Nek8,,fewer than 50 cells per well; well left out of calls,167,106
Zfp738,-0.72,enough cells in well,141,139
Ccr4,0.61,enough cells in well,228,411
Cwh43,,fewer than 50 cells per well; well left out of calls,97.9,134
Ccrl2,-0.23,enough cells in well,189,289
Megf9,0.81,enough cells in well,238,189
Rbbp4,-0.22,enough cells in well,326,163
Hsdl2,0.14,enough cells in well,234,82.2
Tonsl,2.21,enough cells in well,238,318
Zic1,-0.52,enough cells in well,241,167
Tal2,1.05,enough cells in well,321,178
Kif27,0.69,enough cells in well,244,86.2
Rcl1,2.03,enough cells in well,235,196
Bach1,2.59,enough cells in well,266,311
D830016O14Rik,2.81,enough cells in well,430,263
Lpin2,-0.12,enough cells in well,183,136
Zcchc14,0.97,enough cells in well,92.3,218
Gal3st1,0.11,enough cells in well,308,206
Tbpl2,-0.67,enough cells in well,89.4,73.6
Klhl20,-1.62 (active),enough cells in well,121,64.4
Skil,0.55,enough cells in well,314,270
Pamr1,-0.19,enough cells in well,157,119
Cntnap4,-0.86,enough cells in well,88.7,164
C1ra,2.19,enough cells in well,263,266
Kif5a,-0.29,enough cells in well,199,148
Trmt9b,1.59,enough cells in well,359,203
Asb17,-0.09,enough cells in well,182,144
Lrriq4,4.29 (active),enough cells in well,431,190
Tmeff2,0.98,enough cells in well,174,109
Slc17a4,-0.87,enough cells in well,117,125
Grb10,-0.92,enough cells in well,189,151
A430005L14Rik,,fewer than 50 cells per well; well left out of calls,117,109
Foxs1,1.22,enough cells in well,345,347
Lacc1,0.41,enough cells in well,217,202

Targets listed so far whose gene name starts with G or g (6):
gene,Tnf reporter robust z-score,fewer than 50 cells in well,"Tnf reporter intensity, replicate 1","Tnf reporter intensity, replicate 2"
Gpr50,-0.39,enough cells in well,177,274
Gucy2c,1.24,enough cells in well,278,126
Gdf11,-0.23,enough cells in well,216,236
Gpr68,-0.32,enough cells in well,147,341
Gal3st1,0.11,enough cells in well,308,206
Grb10,-0.92,enough cells in well,189,151
